The list shows a part of the results.
How the values were obtained:
Assay in all cases: glycan array binding signal (z-score within array); higher = stronger binding
Details in all cases: glycan notation: IUPAC condensed, linker removed
[1] = target: Gal(b1-3)GlcNAc(b1-2)Man(a1-3)[Gal(b1-3)GlcNAc(b1-2)Man(a1-6)]Man(b1-4)GlcNAc(b1-4)[Fuc(a1-6)]GlcNAc
How it was run: (§1)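 Arrays were curated from the Consortium for Functional Glycomics database, 3228 in total, and kept only where the protein sequence was available. Binding is expressed as a within-array Z-score. This score was averaged across arrays of the same protein sequence at different concentrations or buffers and across linkers, and negative values can be read as non-binding.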

[2] = target: Gal(b1-3)GlcNAc(b1-2)Man(a1-3)[GlcNAc(b1-4)][Gal(b1-3)GlcNAc(b1-2)Man(a1-6)]Man(b1-4)GlcNAc(b1-4)GlcNAc
How it was run: as §1

[3] = target: Gal(b1-3)GlcNAc(b1-2)[Gal(b1-3)GlcNAc(b1-6)]Man(a1-6)[Gal(b1-3)GlcNAc(b1-2)Man(a1-3)]Man(b1-4)GlcNAc(b1-4)GlcNAc
How it was run: as §1

[4] = target: Gal(b1-3)GlcNAc(b1-3)Gal(b1-3)GlcNAc
How it was run: as §1

[5] = target: Gal(b1-3)GlcNAc(b1-3)Gal(b1-4)Glc
How it was run: as §1

[6] = target: Gal(b1-3)GlcNAc(b1-3)Gal(b1-4)GlcNAc
How it was run: as §1

[7] = target: Gal(b1-3)GlcNAc(b1-3)Gal(b1-4)GlcNAc(b1-2)Man(a1-3)[Gal(b1-3)GlcNAc(b1-3)Gal(b1-4)GlcNAc(b1-2)Man(a1-6)]Man(b1-4)GlcNAc(b1-4)GlcNAc
How it was run: as §1

[8] = target: Gal(b1-3)GlcNAc(b1-3)Gal(b1-4)GlcNAc(b1-2)[Gal(b1-3)GlcNAc(b1-3)Gal(b1-4)GlcNAc(b1-6)]Man(a1-6)[Gal(b1-3)GlcNAc(b1-3)Gal(b1-4)GlcNAc(b1-2)Man(a1-3)]Man(b1-4)GlcNAc(b1-4)[Fuc(a1-6)]GlcNAc
How it was run: as §1

[9] = target: Gal(b1-3)GlcNAc(b1-3)Gal(b1-4)GlcNAc(b1-3)Gal(b1-4)GlcNAc(b1-2)[Gal(b1-3)GlcNAc(b1-3)Gal(b1-4)GlcNAc(b1-3)Gal(b1-4)GlcNAc(b1-6)]Man(a1-6)[Gal(b1-3)GlcNAc(b1-3)Gal(b1-4)GlcNAc(b1-3)Gal(b1-4)GlcNAc(b1-2)Man(a1-3)]Man(b1-4)GlcNAc(b1-4)[Fuc(a1-6)]GlcNAc
How it was run: as §1

[10] = target: Gal(b1-3)GlcNAc(b1-3)Gal(b1-4)GlcNAc(b1-6)[Gal(b1-3)GlcNAc(b1-3)]Gal(b1-4)Glc
How it was run: as §1

[11] = target: Gal(b1-3)GlcNAc(b1-3)Gal(b1-4)[Fuc(a1-3)]GlcNAc
How it was run: as §1

[12] = target: Gal(b1-3)GlcNAc(b1-3)Gal(b1-4)[Fuc(a1-3)]GlcNAc(b1-6)[Gal(b1-3)GlcNAc(b1-3)]Gal(b1-4)Glc
How it was run: as §1

[13] = target: Gal(b1-3)GlcNAc(b1-3)GalNAc
How it was run: as §1

[14] = target: Gal(b1-3)GlcNAc(b1-6)Gal(b1-4)GlcNAc
How it was run: as §1

[15] = target: Gal(b1-3)GlcNAc(b1-6)GalNAc
How it was run: as §1

[16] = target: Gal(b1-3)GlcNAc(b1-6)[Gal(b1-3)]GalNAc
How it was run: as §1

Gal(b1-3)GlcNAc6S = target: Gal(b1-3)GlcNAc6S
How it was run: as §1

[17] = target: Gal(b1-3)[Fuc(a1-4)]GlcNAc
How it was run: as §1

[18] = target: Gal(b1-3)[Fuc(a1-4)]GlcNAc(b1-2)Man
How it was run: as §1

[19] = target: Gal(b1-3)[Fuc(a1-4)]GlcNAc(b1-2)Man(a1-3)[Gal(b1-3)[Fuc(a1-4)]GlcNAc(b1-2)Man(a1-6)]Man(b1-4)GlcNAc(b1-4)[Fuc(a1-6)]GlcNAc
How it was run: as §1

[20] = target: Gal(b1-3)[Fuc(a1-4)]GlcNAc(b1-3)Gal(b1-3)[Fuc(a1-4)]GlcNAc
How it was run: as §1

[21] = target: Gal(b1-3)[Fuc(a1-4)]GlcNAc(b1-3)Gal(b1-4)[Fuc(a1-3)]GlcNAc
How it was run: as §1

[22] = target: Gal(b1-3)[Fuc(a1-4)]GlcNAc(b1-6)GalNAc
How it was run: as §1

[23] = target: Gal(b1-3)[GlcNAc(b1-6)]GalNAc
How it was run: as §1

[24] = target: Gal(b1-3)[Neu5Ac(a2-6)]GalNAc
How it was run: as §1

[25] = target: Gal(b1-3)[Neu5Ac(a2-6)]GlcNAc(b1-4)Gal(b1-4)Glc
How it was run: as §1

[26] = target: Gal(b1-3)[Neu5Ac(b2-6)]GalNAc
How it was run: as §1

Gal(b1-4)Gal = target: Gal(b1-4)Gal
How it was run: as §1

[27] = target: Gal(b1-4)GalNAc(a1-3)[Fuc(a1-2)]Gal(b1-4)GlcNAc
How it was run: as §1

[28] = target: Gal(b1-4)GalNAc(b1-3)[Fuc(a1-2)]Gal(b1-4)GlcNAc
How it was run: as §1

Gal(b1-4)Glc = target: Gal(b1-4)Glc
How it was run: as §1

Gal(b1-4)Glc6S = target: Gal(b1-4)Glc6S
How it was run: as §1

Gal(b1-4)GlcNAc = target: Gal(b1-4)GlcNAc
How it was run: as §1

[29] = target: Gal(b1-4)GlcNAc(a1-6)Gal(b1-4)GlcNAc
How it was run: as §1

Gal(b1-4)GlcNAc(b1-2)Man = target: Gal(b1-4)GlcNAc(b1-2)Man
How it was run: as §1

[30] = target: Gal(b1-4)GlcNAc(b1-2)Man(a1-3)Man(b1-4)GlcNAc(b1-4)GlcNAc
How it was run: as §1

[31] = target: Gal(b1-4)GlcNAc(b1-2)Man(a1-3)[Gal(b1-4)GlcNAc(b1-2)Man(a1-6)]Man(b1-4)GlcNAc(b1-4)GlcNAc
How it was run: as §1

[32] = target: Gal(b1-4)GlcNAc(b1-2)Man(a1-3)[Gal(b1-4)GlcNAc(b1-2)Man(a1-6)]Man(b1-4)GlcNAc(b1-4)[Fuc(a1-6)]GlcNAc
How it was run: as §1

[33] = target: Gal(b1-4)GlcNAc(b1-2)Man(a1-3)[Gal(b1-4)GlcNAc(b1-2)Man(a1-6)][Gal(b1-4)GlcNAc(b1-4)]Man(b1-4)GlcNAc(b1-4)[Fuc(a1-6)]GlcNAc
How it was run: as §1

[34] = target: Gal(b1-4)GlcNAc(b1-2)Man(a1-3)[Gal(b1-4)GlcNAc(b1-2)Man(a1-6)][GlcNAc(b1-4)]Man(b1-4)GlcNAc(b1-4)[Fuc(a1-6)]GlcNAc
How it was run: as §1

[35] = target: Gal(b1-4)GlcNAc(b1-2)Man(a1-3)[GlcNAc(b1-2)Man(a1-6)]Man(b1-4)GlcNAc(b1-4)GlcNAc
How it was run: as §1

[36] = target: Gal(b1-4)GlcNAc(b1-2)Man(a1-3)[GlcNAc(b1-4)][Gal(b1-4)GlcNAc(b1-2)Man(a1-6)]Man(b1-4)GlcNAc(b1-4)GlcNAc
How it was run: as §1

[37] = target: Gal(b1-4)GlcNAc(b1-2)Man(a1-3)[Man(a1-6)]Man(b1-4)GlcNAc(b1-4)GlcNAc
How it was run: as §1

[38] = target: Gal(b1-4)GlcNAc(b1-2)Man(a1-6)Man(b1-4)GlcNAc(b1-4)GlcNAc
How it was run: as §1

[39] = target: Gal(b1-4)GlcNAc(b1-2)Man(a1-6)[GlcNAc(b1-2)Man(a1-3)]Man(b1-4)GlcNAc(b1-4)GlcNAc
How it was run: as §1

B1: Clec18A (Homo sapiens) (protein)
chain: PFHTCDLRIDGDCFMVSSEADTYYRARMKCQRKGGVLAQIKRQKVQDILAFYLGRLETTNEVIDSDFETRNFWIGLTYKTAKDSFRWATGEHQAFTSFAFGQPDNHGFGNCVELQASAAFNWNDQRCKTRNRYICQ
- glycan array binding signal (z-score) [1]: -0.113
- glycan array binding signal (z-score) [2]: -0.228
- glycan array binding signal (z-score) [3]: -0.746
- glycan array binding signal (z-score) [4]: 4.51
- glycan array binding signal (z-score) [5]: -0.534
- glycan array binding signal (z-score) [6]: 1.26
- glycan array binding signal (z-score) [7]: 0.452
- glycan array binding signal (z-score) [8]: 0.598
- glycan array binding signal (z-score) [9]: -0.173
- glycan array binding signal (z-score) [10]: -0.381
- glycan array binding signal (z-score) [11]: -0.677
- glycan array binding signal (z-score) [12]: -0.023
- glycan array binding signal (z-score) [13]: -0.214
- glycan array binding signal (z-score) [14]: -0.879
- glycan array binding signal (z-score) [15]: -0.784
- glycan array binding signal (z-score) [16]: 0.226
- glycan array binding signal (z-score) (Gal(b1-3)GlcNAc6S): 0.315
- glycan array binding signal (z-score) [17]: 2.46
- glycan array binding signal (z-score) [18]: -0.671
- glycan array binding signal (z-score) [19]: 1.53
- glycan array binding signal (z-score) [20]: 0.734
- glycan array binding signal (z-score) [21]: -0.574
- glycan array binding signal (z-score) [22]: 1.03
- glycan array binding signal (z-score) [23]: -0.081
- glycan array binding signal (z-score) [24]: -0.604
- glycan array binding signal (z-score) [25]: 2.76
- glycan array binding signal (z-score) [26]: 2.64
- glycan array binding signal (z-score) (Gal(b1-4)Gal): 2.6
- glycan array binding signal (z-score) [27]: -0.146
- glycan array binding signal (z-score) [28]: 0.926
- glycan array binding signal (z-score) (Gal(b1-4)Glc): 0.104
- glycan array binding signal (z-score) (Gal(b1-4)Glc6S): 0.38
- glycan array binding signal (z-score) (Gal(b1-4)GlcNAc): -0.144
- glycan array binding signal (z-score) [29]: 0.731
- glycan array binding signal (z-score) (Gal(b1-4)GlcNAc(b1-2)Man): -0.289
- glycan array binding signal (z-score) [30]: 0.13
- glycan array binding signal (z-score) [31]: 1.15
- glycan array binding signal (z-score) [32]: 2.1
- glycan array binding signal (z-score) [33]: 0.048
- glycan array binding signal (z-score) [34]: -0.18
- glycan array binding signal (z-score) [35]: 0.338
- glycan array binding signal (z-score) [36]: 0.196
- glycan array binding signal (z-score) [37]: 1.77
- glycan array binding signal (z-score) [38]: 0.546
- glycan array binding signal (z-score) [39]: -0.836

Reference: the supplement of paper PMC8728848
